This list was built around the results that the source calls inconclusive (neither active nor inactive); the mix of calls is not that of the screen. A potency beside an inconclusive call is a rough fit, not a confirmed value. Active and inactive are the calls of the source. Calls come from the whole dose curve; as a rule, active = well fitted cell-killing curve with a large enough effect; inconclusive = small, poorly fitted or top-dose-only effect, or effect the other way; inactive = no such curve, though single readings can be large or run the other way.
Test system: Es-2
Assay: Confirmatory qHTS for gynecologic anti-cancer compounds from libraries of approved drugs and bioactive compounds; note: nearly all actives have a fitted effect of over 55% in size
Details: gynecologic cancer cell panel viability, ATPlite luminescence, 48 h; series mostly up to 57.6 µM; activity change, negative = viability loss: at the top concentration
In short: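 IC50 values derive from an ATPlite ATP-content luminescence assay following 48 h treatment at 37 C. Each compound ran as an 11-concentration, threefold series (57.5 uM to 0.977 nM); HEK 293T served as control line for selectivity index.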
% is set by controls: 0 for no effect and ±100 for the full control effect; potency is the fitted concentration of half-maximal effect.

Structure (SMILES)	activity change, negative = viability loss	Potency
O=C(O)Cc1ccccc1	inactive: 20.5%	
C[C@H]1CCC/C=C/C2C[C@H](O)C[C@H]2[C@H](O)/C=C/C(=O)O1 (stereo partly specified)		active: 0.485 µM
CCC(=O)O[C@H]1CC[C@H]2[C@@H]3CCC4=CC(=O)CC[C@]4(C)[C@H]3CC[C@]12C	inactive: 5.91%	
Cc1sc2c(c1C)C(c1ccc(Cl)cc1)=NC(CC(=O)OC(C)(C)C)c1nnc(C)n1-2 (stereo unspecified)		inconclusive: 4.85 µM [cytotoxic, partial curve]
C[C@]12CC[C@H]3[C@@H](CCC4=CC(=O)CC[C@@H]43)[C@@H]1CC[C@@H]2OC(=O)CCc1ccccc1	inactive: -4.17%	
CCN1CCN(C(=O)Cc2ccc(Nc3ncc(F)c(Nc4ccc(C(=O)Nc5ccccc5Cl)cc4)n3)cc2)CC1	inactive: -8.79%	
